Laboratory results taken from article doi:10.1101/700419.
These are yes or no findings as the source states them, for the method shown. Binding seen in cells or lysates may run through a third protein. Some results given as binding are weak or reduced against the parent protein; the word gives no strength. For some assays here: Sequences can lack the tags named with a protein.

The chains behind the UniProt entries cited, without tags or fusion partners.
UniProt P42271: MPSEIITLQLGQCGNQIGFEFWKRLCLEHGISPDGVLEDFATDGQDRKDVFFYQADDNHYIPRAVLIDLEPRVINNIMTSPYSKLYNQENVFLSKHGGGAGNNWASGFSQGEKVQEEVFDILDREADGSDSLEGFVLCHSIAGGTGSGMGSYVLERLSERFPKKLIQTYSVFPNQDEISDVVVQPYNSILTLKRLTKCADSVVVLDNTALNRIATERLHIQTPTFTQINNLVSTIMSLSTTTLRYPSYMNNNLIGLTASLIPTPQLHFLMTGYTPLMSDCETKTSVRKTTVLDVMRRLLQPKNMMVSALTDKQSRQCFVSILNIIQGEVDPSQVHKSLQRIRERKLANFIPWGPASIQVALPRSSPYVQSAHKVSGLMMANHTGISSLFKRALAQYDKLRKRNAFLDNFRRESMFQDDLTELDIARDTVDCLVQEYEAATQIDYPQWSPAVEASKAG

T1: Msd1-GFP (Drosophila) (UniProt Q9W0G7)
T1 sequence: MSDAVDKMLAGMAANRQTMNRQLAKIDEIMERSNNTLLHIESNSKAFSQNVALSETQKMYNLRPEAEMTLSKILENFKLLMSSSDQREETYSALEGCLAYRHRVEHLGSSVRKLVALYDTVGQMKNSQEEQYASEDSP

B1: Dgt6 (protein, UniProt Q9VAP2 1-654)
chain: MDRTIIAPWKAEEKEQSEKLHRKLQGLALVHPLPDELRKLIAWDMFLKPNQVAFVHVMHYLFRLLDPAEFKRRFFWPITDKKSEANFRSSTVEYLKHLNEKHQLHWANIKSYLVVMPGGMRFINFLLEFVGFVIQELIKQREKSLGLEAGTPNVSAKVMARQNAVMKEYASSYVVNLEENTALLRDKTQKIRRLMADLSADMGVPEEQLADDGFLDEFEATAALGVERVITQPTERKFDLEASLCGLKEAIDLFQVKQAENNQSKEAVEKALRGMRVLFDCDAVTEGDFYDPLGASKMDALLNGFNRISGTIAEQLDANDHYNESNAFVTTDLQALRVELSQSEVQLNNLLKKLNEPSKKDKGSANASGSARVQTLQPATPRFESVISSKFVSTPPIRIDMGGGGGRNAPVRLALQDDFNGKQFDALSNSLLAPAPPRSARKLKALDQSTGIDLNGTLNRSKINDPMQMLRTIHKNTSKVKAAPQANLSSLGSKWKQMQASFGFDEAPVPGAAVISPQTSPTDPSDPFTPLSGSECTRIERIPRTSENNTSLIAKSAAVIKVLEVSRNVLNLSTSPSGRLDALVPHTESHQQDVAPRLQLNDRTINDSLQLDPDFNIENDKNAFNVSHKFDFDQIGGEDDLQNISDSVLKDIIF
B2: Dgrip91 (protein, UniProt Q9XYP8 1-917)
chain: MSQDRIAGIDVATNSTDISNIINEMIICIKGKQMPEVHEKAMDHLSKMIAANSRVIRDSNMLTERECVQKIMKLLSARNKKEEGKTVSDHFNELYRKLTLTKCDPHMRHSLMTHLLTMTDNSDAEKAVASEDPRTQCDNLTQILVSRLNSISSSIASLNEMGVVNGNGVGAAAVTGAAAVTGAAAVTGAAAVTGAAASHSYDATQSSIGLRKQSLPNYLDATKMLPESRHDIVMSAIYSFTGVQGKYLKKDVVTGRFKLDQQNIKFLTTGQAGMLLRLSELGYYHDRVVKFSDVSTGFNAIGSMGQALISKLKEELANFHGQVAMLHDEMQRFRQASVNGIANKGKKDSGPDAGDEMTLFKLLAWYIKPLHRMQWLTKIADACQVKKGGDLASTVYDFLDNGNDMVNKLVEDLLTAICGPLVRMISKWILEGGISDMHREFFVKSIKDVGVDRLWHDKFRLRLPMLPKFVPMDMANKILMTGKSINFLREICEEQGMMKERDELMKVMESSASQIFSYTPDTSWHAAVETCYQQTSKHVLDIMVGPHKLLDHLHGMRRYLLLGQGDFISILIENMKNELERPGLDIYANDLTSMLDSALRCTNAQYDDPDILNHLDVIVQRPFNGDIGWNIISLQYIVHGPLAAMLESTMPTYKVLFKPLWRMKHMEFVLSMKIWKEQMGNAKALRTMKSEIGKASHRLNLFTSEIMHFIHQMQYYVLFEVIECNWVELQKKMQKATTLDEILEAHEKFLQTILVGCFVSNKASVEHSLEVVYENIIELEKWQSSFYKDCFKELNARKELSKIVEKSEKKGVYGLTNKMILQRDQEAKIFAEKMDIACRGLEVIATDYEKAVSTFLMSLNSSDDPNLQLFGTRLDFNEYYKKRDTNLSKPLTFEHMRMSNVFAVNSRFVICTPSTQE

Assays:
Msd1-GFP (Drosophila) = molecular target: T1, Msd1-GFP (Drosophila); assay: co-IP
[1] = molecular target: γ-Tubulin-GFP (Drosophila) (UniProt P42271); assay: co-IP

Binder	binding (Msd1-GFP (Drosophila))	binding [1]
B1	binds	–
B2	–	binds
